Test results reported in patent US9179676B2, “Substituted picolinic acids and pyrimidine-4-carboxylic acids, method for the production thereof and use thereof as herbicides and plant growth regulators” (BAYER INTELLECTUAL PROPERTY GMBH, priority 2011, dated 2015).
Some entries share one result that the patent states for a list of compounds.

What was measured:
Assay type in all cases: in vivo
Abutilon theophrasti [1] = test: Pre-emergence herbicidal action against harmful plants; conditions: application rate 320 grams per hectare, scored visually after 3 to 4 weeks in greenhouse
Amaranthus retroflexus [2] = test: Post-emergence herbicidal action against harmful plants; conditions: three-leaf stage, application rate 80 grams per hectare, scored visually after 3 to 4 weeks in greenhouse
Veronica persica = test: Pre-emergence herbicidal action against harmful plants; conditions: application rate 320 grams per hectare, scored visually after 3 to 4 weeks in greenhouse
Echinocloa crus galli [3] = test: Post-emergence herbicidal action against harmful plants; conditions: three-leaf stage, application rate 80 grams per hectare, scored visually after 3 to 4 weeks in greenhouse
Amaranthus retroflexus [4] = test: Pre-emergence herbicidal action against harmful plants; conditions: application rate 320 grams per hectare, scored visually after 3 to 4 weeks in greenhouse
Matricaria inodora [5] = test: Post-emergence herbicidal action against harmful plants; conditions: three-leaf stage, application rate 80 grams per hectare, scored visually after 3 to 4 weeks in greenhouse
Stellaria media = test: Pre-emergence herbicidal action against harmful plants; conditions: application rate 320 grams per hectare, scored visually after 3 to 4 weeks in greenhouse
Echinocloa crus galli [6] = test: as above; conditions: application rate 320 grams per hectare, scored visually after 3 to 4 weeks in greenhouse
Abutilon theophrasti [7] = test: Post-emergence herbicidal action against harmful plants; conditions: three-leaf stage, application rate 80 grams per hectare, scored visually after 3 to 4 weeks in greenhouse
Matricaria inodora [8] = test: Pre-emergence herbicidal action against harmful plants; conditions: application rate 320 grams per hectare, scored visually after 3 to 4 weeks in greenhouse

COC(=O)c1nc(-c2ccc3occc3c2)cc(N)c1Cl [Example 1.012]
at least 90%: activity against Abutilon theophrasti (Abutilon theophrasti [1]) | activity against Amaranthus retroflexus (Amaranthus retroflexus [2]) | activity against Veronica persica (Veronica persica) | activity against Echinocloa crus galli (Echinocloa crus galli [3]) | activity against Amaranthus retroflexus (Amaranthus retroflexus [4]) | activity against Matricaria inodora (Matricaria inodora [5]) | activity against Stellaria media (Stellaria media) | activity against Echinocloa crus galli (Echinocloa crus galli [6]) | activity against Abutilon theophrasti (Abutilon theophrasti [7]) | activity against Matricaria inodora (Matricaria inodora [8])

COC(=O)c1nc(-c2cc3ccoc3cc2F)cc(N)c1Cl [Example 1.038]
at least 90%: activity against Abutilon theophrasti (Abutilon theophrasti [1]) | activity against Veronica persica (Veronica persica) | activity against Amaranthus retroflexus (Amaranthus retroflexus [4]) | activity against Stellaria media (Stellaria media) | activity against Echinocloa crus galli (Echinocloa crus galli [6]) | activity against Matricaria inodora (Matricaria inodora [8])

COC(=O)c1nc(-c2ccc3ccoc3c2)cc(N)c1Cl [Example 14.061]
at least 90%: activity against Abutilon theophrasti (Abutilon theophrasti [1]) | activity against Amaranthus retroflexus (Amaranthus retroflexus [2]) | activity against Veronica persica (Veronica persica) | activity against Echinocloa crus galli (Echinocloa crus galli [3]) | activity against Amaranthus retroflexus (Amaranthus retroflexus [4]) | activity against Matricaria inodora (Matricaria inodora [5]) | activity against Stellaria media (Stellaria media) | activity against Echinocloa crus galli (Echinocloa crus galli [6]) | activity against Abutilon theophrasti (Abutilon theophrasti [7]) | activity against Matricaria inodora (Matricaria inodora [8])
